What was measured:
[1] = test system: CYP3A (SVA, AVA); CYP3A and CYP2C8 (CVA); test: in vitro; conditions: human, human liver microsomes, pH 7.4
human liver microsomes = test: Glucuronidation assay: statin glucuronidation in human liver microsomes; format: in vitro ADME; conditions: preliminary data

- microsomal CLint [1]: 50 µL/min/mg
- Relative Contribution of glucuronidation to overall metabolism (human liver microsomes): 7
Structure (SMILES): CC(C)c1c(C(=O)Nc2ccccc2)c(-c2ccccc2)c(-c2ccc(F)cc2)n1CC[C@@H](O)C[C@@H](O)CC(=O)O [AVA, atorvastatin]

Reference: patent US7407772B2, “Screening and selection methods for statin drug combinations” (Merck & Co., Inc., priority 2001, dated 2008)
